This assay concerns the target GST conjugated GGA3 effector binding domain (UniProt Q9NZ52). Nature of the assay: pull-down.

These are yes or no findings as the source states them, for the method shown. Binding seen in cells or lysates may run through a third protein. Binding can be weak; no strength is given.

On to “Arf1 (active, GTP-bound form) (from UniProt P84078 1-181)”, for which the binding entry is “binds”.
